From patent US20250249092A1 (TORAY INDUSTRIES, published 2025)
Results are given in words; binding and its absence hold for the method and conditions named. Some binding calls cover weakened binding; strength is not graded here.

T1: CAPRIN-1 protein on the cell membrane surface of cancer cells (UniProt Q14444)
T1 sequence (looked up): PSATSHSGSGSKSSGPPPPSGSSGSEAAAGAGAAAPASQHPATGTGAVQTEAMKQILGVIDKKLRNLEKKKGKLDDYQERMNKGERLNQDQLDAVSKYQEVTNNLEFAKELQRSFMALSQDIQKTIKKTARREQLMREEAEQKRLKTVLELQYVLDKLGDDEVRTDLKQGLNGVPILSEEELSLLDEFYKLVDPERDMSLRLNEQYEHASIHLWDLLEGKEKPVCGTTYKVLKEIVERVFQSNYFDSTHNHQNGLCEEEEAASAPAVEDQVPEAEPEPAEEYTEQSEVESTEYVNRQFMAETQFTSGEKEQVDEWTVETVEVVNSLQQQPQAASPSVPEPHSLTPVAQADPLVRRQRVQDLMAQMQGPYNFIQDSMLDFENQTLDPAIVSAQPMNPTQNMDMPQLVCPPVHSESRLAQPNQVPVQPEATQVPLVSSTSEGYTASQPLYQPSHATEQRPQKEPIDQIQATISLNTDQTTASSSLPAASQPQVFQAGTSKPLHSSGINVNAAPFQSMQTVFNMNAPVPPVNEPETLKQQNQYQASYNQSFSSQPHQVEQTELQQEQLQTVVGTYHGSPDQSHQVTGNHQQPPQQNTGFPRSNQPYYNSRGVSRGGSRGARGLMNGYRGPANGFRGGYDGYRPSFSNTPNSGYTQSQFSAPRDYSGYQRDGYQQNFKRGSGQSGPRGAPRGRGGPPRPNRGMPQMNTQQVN

B1: humanized anti-CAPRIN-1 antibody #69 (antibody, human IgG1, V domains shown)
VH: EVQLVESGGGLVQPGGSLRLSCAASGFSLSSHSLGWVRQAPGKGLEWIGDIRSGGSAYYANWAKGRFTISRDNSKNTLYLQMNSLRAEDTAVYYCTRTNGPSDLTNRLDLWGQGTLVTVSS
VL: QVLTQSPSSLSASVGDRVTINCQASQSLYNNENLAWFQQKPGKVPKRLIYGASTLASGVSSRFSGSGSGTEFTLTISSLQCEDFAIYYCLGEFSCGSADCFAFGGGTKVEIK
B2: humanized anti-CAPRIN-1 antibody #73 (antibody, human IgG1, V domains shown)
VH: EVQLVESGGGLVQPGGSLRLSCAASGFSLSSHSLGWVRQAPGKGLEWIGDIRSGGSAYYANWAKGRFTISRDNSKNTLYLQMNSLRAEDTAVYYCTRTNGPSDLTNRLDLWGQGTLVTVSS
VL: EIVLTQSPSSLSASVGDRVTINCQASQSLYNNENLAWFQQKPGKVPKRLIYGASTLASGVSSRFSGSGSGTEFTLTISNLQPEDFATYYCLGEFSCGSADCFAFGGGTKVEIK
B3: mouse chimeric antibody #2 (antibody, V domains shown)
VH: EQSLVESGGGLVQPGGSLRLSCAASGFSLSSHSLGWVRQAPGKGLEWIGDIRSGGSAYYANWAKGRFTISRDNSKNTLYLQMNSLRAEDTAVYYCTRTNGPSDLTNRLDLWGQGTLVTVSS
VL: QVLTQSPSSLSASVGDRVTINCQASQSLYNNENLAWFQQKPGKVPKRLIYGASTLASGVSSRFSGSGSGTEFTLTISSLQCEDFAIYYCLGEFSCGSADCFAFGGGTKVEIK
B4: humanized anti-CAPRIN-1 antibody #74 (antibody, human IgG1, V domains shown)
VH: EVQLVESGGGLVQPGGSLRLSCAASGFSLSSHSLGWVRQAPGKGLEWIGDIRSGGSAYYANWAKGRFTISRDNSKNTLYLQMNSLRAEDTAVYFCTRTNGPSDLTNRLDLWGQGTLVTVSS
VL: EQVLTQSPSSLSASVGDRVTINCQASQSLYNNENLAWFQQKPGKVPKRLIYGASTLASGVSSRFSGSGSGTEFTLTISNLQPEDFAIYYCLGEFSCGSADCFAFGGGTKVEIK
B5: humanized anti-CAPRIN-1 antibody #71 (antibody, human IgG1, V domains shown)
VH: EVQLVESGGGLVQPGGSLRLSCAASGFSLSSHSLGWVRQAPGKGLEWIGDIRSGGSAYYANWAKGRFTISRDNSKNTLYLQMNSLRAEDTAVYYCTRTNGPSDLTNRLDLWGQGTLVTVSS
VL: EQVLTQSPSSLSASVGDRVTINCQASQSLYNNENLAWFQQKPGKVPKRLIYGASTLASGVSSRFSGSGSGTEFTLTISNLQPEDFAIYYCLGEFSCGSADCFAFGGGTKVEIK
B6: humanized anti-CAPRIN-1 antibody #72 (antibody, human IgG1, V domains shown)
VH: EVQLVESGGGLVQPGGSLRLSCAASGFSLSSHSLGWVRQAPGKGLEWIGDIRSGGSAYYANWAKGRFTISRDNSKNTLYLQMNSLRAEDTAVYFCTRTNGPSDLTNRLDLWGQGTLVTVSS
VL: EIVLTQSPSSLSASVGDRVTINCQASQSLYNNENLAWFQQKPGKVPKRLIYGASTLASGVSSRFSGSGSGTEFTLTISNLQPEDFATYYCLGEFSCGSADCFAFGGGTKVEIK
B7: humanized anti-CAPRIN-1 antibody #70 (antibody, human IgG1, V domains shown)
VH: EVQLVESGGGLVQPGGSLRLSCAASGFSLSSHSLGWVRQAPGKGLEWIGDIRSGGSAYYANWAKGRFTISRDNSKNTLYLQMNSLRAEDTAVYFCTRTNGPSDLTNRLDLWGQGTLVTVSS
VL: QVLTQSPSSLSASVGDRVTINCQASQSLYNNENLAWFQQKPGKVPKRLIYGASTLASGVSSRFSGSGSGTEFTLTISSLQCEDFAIYYCLGEFSCGSADCFAFGGGTKVEIK
B8: mouse chimeric antibody #1 (antibody, V domains shown)
VH: AVTLDESGGGLQMSRGGLSLVCKASGFDFSSYQMNWIRQAPGKGLEFVAAINKFGNSTGHGAAVKGRVTISRDNGQSTVRLQLNNLRAEDTAIYFCTKHAYGYCGSGTWCAAGEIDAWGHGTEVIVSS
VL: QAASTQPSSVSANPGETVEITCSGGGSYSYGWFQQKSPGSAPVTVIYYNNKRPSDIPSRFSGSKSGSTGTLTITGVQADDEAVYYCGSGDSTDTAVFGAGTTLTVLG

The binders below were run against T1, CAPRIN-1 protein on the cell membrane surface of cancer cells (assay: flow cytometry).

binding, binds:
B1, B2, B3, B4, B5, B6, B7, B8
